Measurements taken from PubChem BioAssay AID485314 (National Center for Advancing Translational Sciences (NCATS), 2010).
Screen size: about 340,000 compounds; about 4,500 (1.3%) were called active. The inconclusive results got no clear call from the source; some entries with a clear call stand among them for comparison. The call rests on the fitted dose curve; in most records, active means well fitted inhibition curve with a large enough effect; inconclusive means small, poorly fitted or top-dose-only effect, or another doubt; inactive means no such curve, though single readings can be large or run the other way. Potencies beside an inconclusive call are fits to weak or partial responses and may not hold up.

Each compound was assayed against DNA polymerase beta (Homo sapiens) (UniProt P06746) (assay: qHTS Assay for Inhibitors of DNA Polymerase Beta). Conditions: Pol beta primer extension/strand displacement, fluorescence kinetic; activity change, negative = inhibition: at 114 µM (top of the series).
In short: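 10 nM enzyme + cpd, 15 min RT; start with substrate 50 nM final; read 0 min and after 10 min RT. Corrected, normalized data; 4-parameter Hill curve fit.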
On the % scale 0 is the no-effect control and ±100 the full control effect; potency means the concentration at half of the fitted maximal effect.

Activity change, negative = inhibition, inactive:
CCc1ccc2oc(C(=O)Nc3c(C)n(C)n(-c4ccccc4)c3=O)cc(=O)c2c1 10.1%
Cc1ccccc1Cn1c2ccccc2c2cnn(CC(=O)NC(C)CCc3ccccc3)c(=O)c21 (stereo not drawn) 27.1%
CCCOc1ccc(C(=O)Nc2cc3c(cc2N2CCOCC2)n(C)c(=O)n3C)cc1 17.5%
Cc1nn(CC(=O)O)c(=O)c2cc3cc(F)ccc3n12 16.8%
Cc1ccc(N2CCN(S(=O)(=O)c3cc(C(=O)Nc4cc(Cl)cc(Cl)c4)ccc3F)CC2C)cc1 (stereo not drawn) -0.707%
CCC1CCc2nc3sc(C(=O)Nc4ccc(C)cc4)c(N)c3cc2C1 (stereo not drawn) 17.7%
COn1c2c(c3c4no[n+]([O-])c4ccc31)CCCC2 -16.2%
Cc1ccc(C(=O)N/N=C\c2ccc(-c3ccc(Cl)cc3)o2)cn1 1.83%

Activity change, negative = inhibition, inconclusive:
COC(=O)c1ccc(NC(=O)CN(CCc2ccccc2)S(=O)(=O)c2ccc(OC)cc2)cc1 -35.2% [inhibitor]
Cc1ccc2c(c1)c(=O)c1ccccc1n2CCCC(=O)Nc1cc(Cl)ccc1C -88.5% [inhibitor]
Cc1ccc(-c2cc(C(=O)N3CCCCC3)c3ccccc3n2)cc1C -35% [inhibitor]
O=C(CSc1nnc(CNC(=O)c2ccccc2F)o1)NCc1ccco1 -52.9% [inhibitor]

Potency, inconclusive:
COc1cc(C)c(-c2cc(C(=O)O)c(C)o2)cc1C(C)C 11.2 µM [inhibitor, partial curve, poor fit]
CCc1cccc(C)c1NC(=O)COC(=O)CNS(=O)(=O)/C=C/c1ccccc1 39.8 µM [inhibitor, single point]
CCn1cnc2cc(NC(=O)c3cccs3)ccc21 22.4 µM [inhibitor, single point]
CC(C)=CCc1c2c(c3occ(-c4ccc(O)cc4)c(=O)c3c1O)C=CC(C)(C)O2 15.8 µM [inhibitor, partial curve]
CCCOc1ccc(C(=O)NNC(=S)NC(=O)c2ccccc2)cc1 10 µM [inhibitor, partial curve]
COc1ccccc1N1CCN(c2ccc(=O)n(CC(=O)NCc3ccc(OC(C)C)cc3)n2)CC1 89.1 µM [inhibitor, single point]
O=C(Nc1ccc2oc(-c3cccnc3)nc2c1)c1ccc(Br)cc1 0.316 µM [inhibitor, full curve, poor fit]
O=C(N/N=C/C(Cl)=C/c1ccc([N+](=O)[O-])cc1)C(=O)Nc1ccc(C(=O)O)cc1 22.4 µM [inhibitor, full curve]
O=C(Nc1ccc(O)cc1)c1cc2ccccc2c(=O)s1 11.2 µM [inhibitor, full curve]
COc1ccc(C(=O)c2sc(Nc3ccccc3)c(C(=O)Nc3ccc(OC)c(OC)c3)c2N)cc1 0.141 µM [inhibitor, full curve, poor fit]
Cc1cc(Cl)c(S(=O)(=O)N2CCCCCC2)cc1OCC(=O)NC1CCCCC1 100 µM [inhibitor, partial curve]
CC(C)(C)c1ccc(C(=O)N/C(=C\c2cccc([N+](=O)[O-])c2)C(=O)Nc2cccc(C(=O)O)c2)cc1 39.8 µM [inhibitor, single point]
COc1ccc(-n2nc(C(=O)N3CCN(c4ccc(F)cc4)CC3)c3c4ccccc4n(C)c3c2=O)cc1 0.141 µM [inhibitor, full curve, poor fit]
COc1cccc(C(=O)Nc2cccnc2)c1OC 39.8 µM [inhibitor, single point]
O=C(CCl)N(c1ccccc1)c1ccccc1 0.891 µM [inhibitor, full curve, poor fit]
CC(C)Cc1nn2c(N)c(/C=C3\C=Nc4ccccc43)c(=O)nc2s1 39.8 µM [inhibitor, single point]
O=C(Nc1ccccc1C(=O)Nc1ccncc1)c1ccc([N+](=O)[O-])cc1 56.2 µM [inhibitor, partial curve, poor fit]
CCc1ccc(-c2nn(CC(=O)NC3CCCCC3)c3c2cnc2ccc(C)cc23)cc1 89.1 µM [inhibitor, single point]
Cc1ccc(N2C(=O)CSC2c2cccs2)cc1 (stereo not drawn) 15.8 µM [inhibitor, partial curve]
CC(C)CNC(=O)c1ccccc1NC(=O)c1ccccc1N(C)S(C)(=O)=O 79.4 µM [inhibitor, single point]
COc1cc(C(=O)Nc2nc3ccc(C)cc3s2)ccc1OCc1c(C)noc1C 17.8 µM [inhibitor, partial curve]
O=S(=O)(N/N=C/c1ccccc1F)c1ccccc1 5.01 µM [inhibitor, full curve, poor fit]
O=Cc1ccc(Oc2cccc(C(F)(F)F)c2)nc1 89.1 µM [inhibitor, single point]
COCc1cc(=O)[nH]c2cc(NC(=O)C(C)(C)CCl)c(C)cc12 79.4 µM [inhibitor, single point]
COC(=O)[C@H](Cc1ccccc1)NC(=O)O[C@H]1C(=O)c2ccc(OC)cc2O[C@@H]1c1ccc2c(c1)OCO2 89.1 µM [inhibitor, single point]

Potency, active:
O=C(Nc1ccc(N2CCOCC2)cc1)Nc1ccc2nc(-c3ccco3)c(-c3ccco3)nc2c1 5.01 µM
O=C(OCc1cc(=O)n2c(n1)sc1ccccc12)c1ccc2c(=O)n3c(nc2c1)CCC3 10 µM
Nc1ccc2c(c1Cl)C(=O)c1ccc(N)c(Cl)c1C2=O 2 µM
CCOc1cc(CNc2cccc3ccccc23)cc(Br)c1OCC(=O)NC(C)(C)C 79.4 µM
Nc1ncnc2oc(-c3ccco3)c(-c3ccco3)c12 6.31 µM
Cc1ccc(/C=C2\SC(=S)N(C(Cc3ccccc3)C(=O)O)C2=O)cc1 (stereo not drawn) 89.1 µM

3 records drawn at random from the list so far, as already listed:
Potency, active:
Cc1ccc(/C=C2\SC(=S)N(C(Cc3ccccc3)C(=O)O)C2=O)cc1 (stereo not drawn) 89.1 µM
CCOc1cc(CNc2cccc3ccccc23)cc(Br)c1OCC(=O)NC(C)(C)C 79.4 µM
Nc1ncnc2oc(-c3ccco3)c(-c3ccco3)c12 6.31 µM
